Results from PubChem BioAssay AID2685 (National Center for Advancing Translational Sciences (NCATS), 2010).
Some of the results follow. Further columns of the screen follow, without active or inactive calls. The list favours compounds with an active or inconclusive main result. Potencies come from curve fits of mixed quality, noted in brackets.

Experiment: qHTS Assay for Lipid Storage Modulators in Drosophila S3 Cells;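 on cell number change: cells counted by Cell Tracker Red CMTPX staining in the red channel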
Details: BODIPY lipid droplet fluorescence, 18-24 h; for cell number change: measured here: cell count max response, cells fed with added oleic acid
Procedure, shortened: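 Laser-scanning cytometry quantifies lipid droplet accumulation (500–530 nm total intensity; droplet/cell object ratio) in oleic acid-fed (400 uM added) Drosophila S3 cells treated with a concentration series. 20 uM Triacsin C defined 100% inhibition.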

[1] = measured here: cell number channel AC50, cells fed with added oleic acid
[2] = measured here: lipid fluorescence (Fed channel) AC50, cells fed with added oleic acid

| SMILES | cell number change [%] | AC50 [1] | AC50 [2] |
| --- | --- | --- | --- |
| COC(=O)C1C(c2ccc(OC)cc2)Nc2nnc(C(F)(F)F)n2C1(C)O (stereo unspecified) | -69.5 | – | – |
| CCCOc1ccc(-c2nc(OCC)c3ccccc3n2)cc1 | 13.8 | 0.92 µM [rising, partial curve] | 1.64 µM [rising, partial curve] |
| CN1CCN(c2cc(=O)n(Cc3ccc(F)cc3)c(=O)[nH]2)CC1 | -53.9 | 29.1 µM [falling, single point] | 2.06 µM [falling, partial curve] |
| CCc1cc(=O)oc2c(CNCc3ccc(OC)cc3OC)c(O)c(Cl)cc12 | -38.7 | 0.0731 µM [falling, full curve, poor fit] | – |
| COc1ccc2nc(NC(=O)Cn3cnc4ccccc4c3=O)sc2c1 | 13.3 | – | 6.51 µM [rising, single point] |
| CCc1ccc(NC(=O)Cc2c(C(=O)O)n(C)c3ccccc23)cc1 | -41.3 | 29.1 µM [falling, single point] | 14.6 µM [falling, single point] |
| O=C(CCCC(=O)N(CC(=O)NC1CCCCC1)CC1CCCO1)Nc1ccccn1 (stereo unspecified) | 34.7 | 16.4 µM [rising, single point] | 29.1 µM [rising, single point] |
| COc1ccc(OC)c(NC(=O)c2cc(-c3cc(C)ccc3O)n[nH]2)c1 | 187 | 29.1 µM [rising, single point] | 0.0326 µM [rising, full curve, poor fit] |
| Cc1ccc(C(=O)COC(=O)c2ccc(Cl)c(N)c2)s1 | -19.3 | – | 29.1 µM [rising, single point] |
| Cc1c(CCC(=O)N[C@@H](C)C(=O)O)c(=O)oc2cc3oc4c(c3cc12)CCCC4 | – | – | 6.51 µM [falling, single point] |
| COCCCn1c(SC(C)C(=O)Nc2c(C)n(C)n(-c3ccccc3)c2=O)n[nH]c1=O (stereo unspecified) | -23.7 | – | – |
| O=C(NCc1ccccn1)C1CCCN(S(=O)(=O)c2ccc(Br)cc2)C1 (stereo unspecified) | -4.5 | – | 29.1 µM [falling, single point] |
| O=C(c1cc(COc2cccc(C(F)(F)F)c2)on1)N1C[C@@H]2CCC[C@H]1C2 | -0.268 | – | 29.1 µM [falling, single point] |
| CNS(=O)(=O)c1ccc(NC(=O)C2CC(=O)N(c3ccc(Cl)cc3)C2)cc1 (stereo unspecified) | 116 | – | – |
| COCCNc1nc2nonc2nc1N(C)Cc1ccc(C)cc1 | 14.4 | – | 4.11 µM [rising, full curve, poor fit] |
| COc1ccccc1-n1cnnc1SCC(=O)Nc1ncc(Cl)cc1Cl | – | – | 6.51 µM [falling, single point] |
| COc1ccc(CCNC(=O)c2cnn(-c3ccc(C)c(C)c3)c2NC(=O)c2ccco2)cc1OC | 3.22 | – | 29.1 µM [rising, single point] |
| Cc1ccc(NC(=O)c2ccc(S(=O)(=O)N3CCC(C)CC3)cc2)nc1 | 39.9 | 18.4 µM [rising, single point] | 6.51 µM [rising, single point] |

| SMILES | cell number change [%] | AC50 [1] | AC50 [2] |
| --- | --- | --- | --- |
| CC(C)(CNC(=O)c1cccc(S(=O)(=O)Nc2ccc(Br)cc2)c1)N1CCOCC1 | – | – | 0.731 µM [falling, single point] |
| CC(C)(C)N1CC2(c3ccccc3)CN(C(C)(C)C)CC(c3ccccc3)(C1)C2=O | 3.41 | 0.0116 µM [rising, full curve, poor fit] | 4.11 µM [rising, partial curve, poor fit] |
| CCCCn1c(N)c(N(CCC(C)C)C(=O)COC(=O)c2sccc2C)c(=O)[nH]c1=O | -7.15 | – | 0.461 µM [falling, single point] |
| Cc1ccn2c(c1)nc(=O)c1cc(S(=O)(=O)N3CCCCC3)ccc12 | -10.7 | – | 29.1 µM [falling, single point] |
| Cc1ccsc1C(=O)NNC(=S)NCC(C)C | 33.2 | – | – |
| COc1cc(/C=C2\C(=O)N(c3ccc(NC(C)=O)cc3)N=C2c2ccccc2)ccc1O | -0.113 | 0.731 µM [falling, single point] | 29.1 µM [rising, single point] |
| Cc1ccsc1C(=O)N(c1nc2ccccc2s1)c1c(C)cccc1C | -24.8 | – | 9.2 µM [falling, partial curve] |
| O=C(c1ccccc1)c1c(O)cc(-c2ccccc2)oc1=O | – | – | 20.6 µM [rising, single point] |
| O=C(NC1CCSc2ccccc21)c1ccc(F)cc1 (stereo unspecified) | 25.8 | – | – |
| Cc1cc(C)n2nc(CNS(=O)(=O)c3ccc(CC(C)C)cc3)nc2n1 | 18.2 | – | 20.6 µM [rising, partial curve, poor fit] |
| CC1C(c2ccccc2)=[N+]([O-])C2(CCCCC2)N1O (stereo unspecified) | – | 0.00461 µM [rising, full curve, poor fit] | – |
| O=C(Nc1ccc(S(=O)(=O)N2CCCC2)cc1)c1ccc2c(=O)n3c(nc2c1)CCCCC3 | 14.9 | – | 29.1 µM [rising, single point] |
| COC(=O)c1cc(CNC(=O)c2ccc(N3CCCC3)c([N+](=O)[O-])c2)ccc1OC | -8 | – | 3.16 µM [falling, single point] |
| CCOc1ccc(N(CC(=O)NCCSCc2ccccc2Cl)S(C)(=O)=O)cc1 | -38.1 | 18.4 µM [falling, partial curve] | – |
| CC(C)CNC(=O)c1cc([N+](=O)[O-])ccc1N1CCOCC1 | 32.5 | 29.1 µM [rising, single point] | 16.4 µM [rising, single point] |
| COc1ccc(N(C)C(=O)C2CCCN2S(=O)(=O)c2cccc3nsnc23)c(OC)c1 (stereo unspecified) | -6.27 | – | 29.1 µM [rising, single point] |
| CCOC(=O)NC1(NCc2ccccc2)Oc2ccccc2O1 | 45.7 | 29.1 µM [rising, single point] | – |
| Cc1ccc(C2(C)NC(=O)N(CC(=O)NNC(=O)c3ccccc3)C2=O)cc1 (stereo unspecified) | 16.8 | – | 0.731 µM [rising, full curve] |

Individual results from the entries so far.
Value for `CC(C)(C)N1CC2(c3ccccc3)CN(C(C)(C)C)CC(c3ccccc3)(C1)C2=O` under AC50 [1]: 0.0116 µM [rising, full curve, poor fit]
Value for `O=C(c1ccccc1)c1c(O)cc(-c2ccccc2)oc1=O` under AC50 [2]: 20.6 µM [rising, single point]
